In article PMC12977164:
The exact form of at least one protein or probe is not confirmed.

Tested on: MBP-DpbZIP12
Assay: EMSA
Conditions: shifted band diminished by unlabeled competitor probe (10x, 20x, 50x); LightShift Chemiluminescent EMSA Kit (Pierce), polyacrylamide gel; pH and temperature not stated; recombinant protein; label: biotin

Sequence: TTGTGCACACGTGTCGTGACAGGTCTCACACGTGGCAAGT (double strand) [proDp7-DR probe]
- binding result: binds
